Laboratory results published in US12090189B2, “Polypeptide inhibitor of de novo lipogenesis in cancer cells” (University of Florida Research Foundation, Inc., priority 2018, dated 2024).
“Also recorded” adds a separate entry of the source. Not every detail of the peptide structures is certain; ends, links or a residue may be inferred. Ends that are not written are not given here.

By UniProt entry, the sequences of proteins in these tests, tags left out. Residues count along the entry.
UniProt P63165, 1-97 limits assumed, species assumed: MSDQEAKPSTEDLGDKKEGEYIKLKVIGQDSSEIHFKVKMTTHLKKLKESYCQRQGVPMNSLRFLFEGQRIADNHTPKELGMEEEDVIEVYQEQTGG

Tests used:
SUMO1 = SUMO1 (Homo sapiens, UniProt P63165); experiment: Fluorescence polarization assay of TAMRA-SIM2 with SUMO1; type: binding; details: in vitro, TAMRA-SIM2 with increased concentrations of SUMO1
MDA-MB-231 cells = experiment: De novo lipogenesis assay, [14C] acetate labeling; type: cell-based, human; details: serum-starved cells, SIM2 10 μM
MDA-MB-468 cells = experiment: De novo lipogenesis assay, [14C] acetate labeling; type: cell-based, human; details: serum-starved cells, SIM2 10 μM
Hs578T cells = experiment: De novo lipogenesis assay, [14C] acetate labeling; type: cell-based, human; details: serum-starved cells, SIM2 10 μM
R1-AD1 cells = experiment: De novo lipogenesis assay, [14C] acetate labeling; type: cell-based, human; details: prostate cancer cells R1-AD1
R1-D567 cells = experiment: De novo lipogenesis assay, [14C] acetate labeling; type: cell-based, human; details: prostate cancer cells R1-D567
HCT116 cells = experiment: De novo lipogenesis assay, [14C] acetate labeling; type: cell-based, human; details: serum-starved cells, SIM2 10 μM
4T1 cells = experiment: De novo lipogenesis assay, [14C] acetate labeling; type: cell-based, mouse; details: serum-starved cells, SIM2 10 μM
CT26.CL25 cells = experiment: De novo lipogenesis assay, [14C] acetate labeling; type: cell-based, mouse; details: serum-starved cells, SIM2 10 μM
[1] = test system: MDA-MB-231 cells overexpressing DAXX; experiment: De novo lipogenesis assay, [14C] acetate labeling; type: cell-based, human; details: serum-starved cells, SIM2 10 μM, MDA-MB-231 DAXX OE
[2] = test system: lipogenic genes in MDA-MB-231 control and DAXX OE cell lines; experiment: Lipogenic gene expression by qRT-PCR; type: cell-based, human; details: SIM2 10 μM, 24 h
[3] = test system: interaction of DAXX with full-length and mature SREBP1/2; experiment: Anti-DAXX immunoprecipitation of nuclear extracts in the presence of SIM2; type: binding, human; details: MDA-MB-231 nuclear extracts, SIM2 1 and 5 μM
[4] = test system: DAXX self-association and interaction with ATRX; experiment: as above; type: binding, human; details: MDA-MB-231 nuclear extracts, SIM2 1 and 5 μM
[5] = test system: MDA-MB-231 xenograft tumors; experiment: Orthotopic MDA-MB-231 xenograft tumor treatment study; type: in vivo, female NSG mice
[6] = 25 mg/kg i.p. daily weekdays for three weeks

Q: DPEEIIVLSDSD [SIM2, DPEEIIVLSDSD] was tested. Which “binding to SUMO1” value (SUMO1) did it give?
A: The value was “bound to SUMO1 in vitro; also recorded: high affinity to SUMO1”.

Q: And the de novo lipogenesis (MDA-MB-231 cells)?
A: Its de novo lipogenesis is “blocked de novo lipogenesis”.

Q: What about the de novo lipogenesis (MDA-MB-468 cells) of the same sequence?
A: The de novo lipogenesis was “blocked de novo lipogenesis”.

Q: And the de novo lipogenesis (Hs578T cells)?
A: Its de novo lipogenesis is “blocked de novo lipogenesis”.

Q: And the de novo lipogenesis (R1-AD1 cells)?
A: The de novo lipogenesis was “blocked de novo lipogenesis”.

Q: And the de novo lipogenesis (R1-D567 cells)?
A: The de novo lipogenesis was “blocked de novo lipogenesis”.

Q: What about the de novo lipogenesis (HCT116 cells) of the same sequence?
A: The de novo lipogenesis was “blocked de novo lipogenesis”.

Q: What about the de novo lipogenesis (4T1 cells) of the same sequence?
A: Its de novo lipogenesis is “blocked de novo lipogenesis”.

Q: And the de novo lipogenesis (CT26.CL25 cells)?
A: Its de novo lipogenesis is “blocked de novo lipogenesis”.

Q: And the de novo lipogenesis [1]?
A: Its de novo lipogenesis is “effectively inhibited de novo lipogenesis”.

Q: What about the “inhibition of lipogenic gene expression, DAXX OE versus control cells” value [2] of the same sequence?
A: The value was “inhibition appeared more potent when DAXX expression level was high”.

Q: What about the “expression of lipogenic genes” value ([2]; qRT-PCR normalized against ACTB) of the same sequence?
A: Its value is “blocked the expression of lipogenic genes”.

Q: What about the “interaction of DAXX with full-length and mature SREBP1/2” value [3] of the same sequence?
A: Its value is “markedly inhibited”.

Q: And the “DAXX self-association and interaction with ATRX” value [4]?
A: The value was “only slightly affected”.

Q: What about the “tumor growth (longitudinal tumor volumes)” value [5, 6] of the same sequence?
A: The value was “significantly impeded tumor growth”.

Q: And the “tumor masses at the experimental endpoint vs vehicle” value [5, 6]?
A: The value was “much smaller”.

Q: What about the “lipid production in xenograft tumors (lipidomic profiling)” value ([5]; LC/MS, SIM2 vs vehicle) of the same sequence?
A: Its value is “marked suppression of lipid production”.

Q: And the “protein levels of DAXX, SREBP2, and FASN in tumor extracts” value ([5]; immunoblotting, SIM2 treatment group vs control group)?
A: Its value is “lower”.
